From the supplement of paper PMC6078165

Tested on: HCC1143
Assay: relative JC-1 red fluorescence (viability) vs pre-drug, coculture with fibroblast (fraction); higher = more viable cancer cells
Experimental: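 JC-1 labelled TNBC cells cocultured 1:1 (1,500 cells each) with CellTrace Violet stained primary or stromal fibroblasts in 384-well plates in FluoroBrite medium, treated with one of 42 anticancer drugs at 0.1, 1, 10 or 100 uM. JC-1 red fluorescence (mitochondrial integrity in cancer cells only) was read by plate reader every 8 h for 72 h. Values are normalised to each well's pre-drug value. The stock of one drug was tenfold lower, so its dose labels may be too high.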

CCN(CC)CCNC(=O)c1c(C)[nH]c(/C=C2\C(=O)Nc3ccc(F)cc32)c1C [Sunitinib]
relative JC-1 red fluorescence
Conditions	8 h	16 h	24 h	32 h	40 h	48 h	56 h	64 h	72 h
0.1 µM, coculture fibroblast: C12385	0.813	0.757	0.703	0.651	0.586	0.553	0.531	0.505	0.499
0.1 µM, coculture fibroblast: H6013	0.738	0.675	0.647	0.636	0.588	0.592	0.5645	0.551	0.511
0.1 µM, coculture fibroblast: H6019	0.826	0.753	0.692	0.639	0.593	0.574	0.523	0.477	0.44
0.1 µM, coculture fibroblast: H6076	0.799	0.7851	0.74117	0.694	0.6492	0.634	0.606	0.589	0.593
0.1 µM, coculture fibroblast: H6231	0.8047	0.79	0.735	0.66	0.636	0.603	0.571	0.545	0.535
0.1 µM, coculture fibroblast: HADF	0.729	0.692	0.662	0.659	0.58	0.567	0.54	0.521	0.489
0.1 µM, coculture fibroblast: HCFa	0.798	0.732	0.688	0.662	0.584	0.564	0.523	0.487	0.461
0.1 µM, coculture fibroblast: HCPF	0.814	0.786	0.767	0.732	0.708	0.7	0.688	0.661	0.665
0.1 µM, coculture fibroblast: HHSteC	0.847	0.81	0.79	0.761	0.708	0.683	0.657	0.638	0.598
0.1 µM, coculture fibroblast: HMF	0.787	0.817	0.754	0.699	0.674	0.649	0.619	0.586	0.575
0.1 µM, coculture fibroblast: HPFa	0.8457	0.7511	0.7197	0.6266	0.5827	0.558	0.5	0.46	0.429
0.1 µM, coculture fibroblast: HUF	0.839	0.762	0.705	0.629	0.575	0.5545	0.504	0.4758	0.449
0.1 µM, coculture fibroblast: Hs5	0.848	0.873	0.828	0.79	0.748	0.72	0.688	0.663	0.661
0.1 µM, coculture fibroblast: Hs27A	0.713	0.707	0.683	0.702	0.603	0.608	0.577	0.559	0.523
0.1 µM, coculture fibroblast: Hs343T	0.832	0.825	0.819	0.801	0.771	0.766	0.749	0.752	0.766
0.1 µM, coculture fibroblast: WS1	0.8144	0.742	0.685	0.623	0.565	0.54	0.493	0.47	0.454
1 µM, coculture fibroblast: C12385	0.813	0.757	0.7123	0.649	0.5902	0.5531	0.523	0.494	0.483
1 µM, coculture fibroblast: H6013	0.77	0.73	0.704	0.697	0.652	0.645	0.625	0.614	0.58
1 µM, coculture fibroblast: H6019	0.818	0.757	0.726	0.669	0.631	0.614	0.563	0.514	0.475
1 µM, coculture fibroblast: H6076	0.8176	0.7826	0.759	0.7274	0.676	0.66	0.632	0.619	0.618
1 µM, coculture fibroblast: H6231	0.841	0.858	0.804	0.713	0.718	0.696	0.657	0.623	0.603
1 µM, coculture fibroblast: HADF	0.7477	0.705	0.67	0.677	0.595	0.577	0.556	0.529	0.513
1 µM, coculture fibroblast: HCFa	0.795	0.745	0.71	0.695	0.621	0.602	0.563	0.534	0.512
1 µM, coculture fibroblast: HCPF	0.802	0.813	0.771	0.7	0.714	0.686	0.657	0.629	0.622
1 µM, coculture fibroblast: HHSteC	0.8117	0.765	0.734	0.697	0.644	0.62	0.591	0.564	0.513
1 µM, coculture fibroblast: HMF	0.8129	0.82	0.762	0.7093	0.664	0.643	0.607	0.588	0.578
1 µM, coculture fibroblast: HPFa	0.8527	0.762	0.735	0.636	0.585	0.557	0.509	0.474	0.443
1 µM, coculture fibroblast: HUF	0.8363	0.7688	0.715	0.641	0.587	0.562	0.516	0.485	0.459
1 µM, coculture fibroblast: Hs5	0.8581	0.8607	0.83	0.789	0.734	0.705	0.666	0.649	0.637
1 µM, coculture fibroblast: Hs27A	0.743	0.673	0.63764	0.65	0.525	0.515	0.476	0.443	0.415
1 µM, coculture fibroblast: Hs343T	0.829	0.829	0.777	0.7098	0.668	0.6394	0.598	0.5818	0.5651
1 µM, coculture fibroblast: WS1	0.796	0.723	0.687	0.62	0.571	0.541	0.496	0.468	0.45

Values are relative to the signal before dosing, not to a vehicle control; the signal also falls without drug.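 Fibroblast labels denote human fibroblasts, mainly primary ones from uterus (C12385, HUF), lung (H6013), bone (Hs27A), adrenal (HADF) and skin (WS1), plus mammary HMF and breast cancer-associated Hs343T. Cancer cells are basal-like or mesenchymal-like triple-negative breast cancer lines. A hit is a response shift exceeding 3x replicate standard deviation. The tissue of the other fibroblasts is not given here.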
